Here are results for one molecule from PMC9176222.

Assay [1] deals with T1, CIPK26, coding sequence without the stop codon in pSPYNE(R)173-CAMBIA1300 (Arabidopsis thaliana) (UniProt Q84VQ3).
T1 sequence: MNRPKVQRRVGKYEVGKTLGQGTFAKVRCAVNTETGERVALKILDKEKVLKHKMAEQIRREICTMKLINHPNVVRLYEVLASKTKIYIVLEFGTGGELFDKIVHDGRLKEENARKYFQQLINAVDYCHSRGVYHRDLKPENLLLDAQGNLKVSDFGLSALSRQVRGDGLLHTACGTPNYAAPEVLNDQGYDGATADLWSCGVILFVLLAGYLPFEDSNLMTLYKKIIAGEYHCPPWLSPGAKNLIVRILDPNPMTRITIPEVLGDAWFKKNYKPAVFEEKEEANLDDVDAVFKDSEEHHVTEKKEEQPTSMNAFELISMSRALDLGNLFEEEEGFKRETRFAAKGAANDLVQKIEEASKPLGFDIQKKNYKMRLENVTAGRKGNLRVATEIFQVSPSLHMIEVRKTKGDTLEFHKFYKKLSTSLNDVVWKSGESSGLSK
In words: split reporter; BiFC in N. benthamiana, 48 h after transfection; CIPK in pSPYNE(R)173, MTP10 in pSPYCE(M); YFP signal by confocal microscopy.

Assay [2] has as its target T2, CIPK7, coding sequence without the stop codon in pSPYNE(R)173-CAMBIA1300 (Arabidopsis thaliana) (UniProt Q9XIW0).
T2 sequence: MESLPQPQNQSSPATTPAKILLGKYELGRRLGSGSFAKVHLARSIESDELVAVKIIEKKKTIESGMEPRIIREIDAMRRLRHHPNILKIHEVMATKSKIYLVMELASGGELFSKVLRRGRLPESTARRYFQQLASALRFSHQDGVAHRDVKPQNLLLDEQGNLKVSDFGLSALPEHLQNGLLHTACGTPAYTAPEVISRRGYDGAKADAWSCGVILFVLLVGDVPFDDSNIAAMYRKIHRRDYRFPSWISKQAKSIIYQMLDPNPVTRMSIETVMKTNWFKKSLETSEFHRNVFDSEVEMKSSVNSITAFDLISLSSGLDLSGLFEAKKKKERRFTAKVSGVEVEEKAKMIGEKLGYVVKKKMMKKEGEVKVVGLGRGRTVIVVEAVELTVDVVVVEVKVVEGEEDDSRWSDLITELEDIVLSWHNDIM
The description is as above.

No constants are given. Whether binding was seen depends on the method and setting. In cells and extracts the contact can be indirect. Some binding calls cover weakened binding; strength is not graded here.

B1: MTP10 (Metal Tolerance Protein 10), coding sequence in pSPYCE(M)-CAMBIA1300 (protein, UniProt Q0WU02 1-428)
chain: MPLNSYIFFLFLTTSPRNTFFGIRTHSDRIMATEHITRTGDEYNVELLPSDDDAPPLESSWRLNLDAFQLPSSTGGRHDGRTRFSRYFRTPRKERRVSEYYKKQERLLEGFNEMETIHENGFASGVPTEEEMKKLAKSERLAVHISNATNLVLFVAKVYASMESRSMAVIASTLDSLLDLLSGFILWFTANAMRKPNQFHYPIGKRRMQPVGIIVFASVMATLGLQVLLESGRQLVAKSGIHMNSTEEKWMIGIMVSVTIVKFLLMLYCRGFQNEIVRAYAQDHLFDVVTNSIGLATAVLAVKFYWWIDPTGAILIALYTIATWARTVLENVHSLIGRSAPPDFLAKLTFLIWNHHEQIKHIDTVRAYTFGSHYFVEVDIVLPEDMRLQEAHNIGETLQEKLEQLAEVERAFVHIDFEFTHRPEHKCN
For the molecule B1, the binding result in assay [1] and in assay [2] was “binds” each time.
